Source: patent publication US20160289298A1
No constants are given. Whether binding was seen depends on the method and setting. Some entries that bind do so weakly or less than the wild type.

The chains behind the UniProt entries cited, without tags or fusion partners. Residues count along the entry.
UniProt P36894, residues 24-152: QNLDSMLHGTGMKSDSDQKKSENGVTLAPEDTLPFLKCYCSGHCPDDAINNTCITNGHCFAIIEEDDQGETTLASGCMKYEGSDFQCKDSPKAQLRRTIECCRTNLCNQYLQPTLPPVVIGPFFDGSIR

Assays:
GDF7 [1] = target: T1, GDF7 (UniProt Q7Z4P5); experiment: SPR (Biacore), receptor-Fc captured by anti-Fc antibody, ligand injected
T1 sequence (looked up): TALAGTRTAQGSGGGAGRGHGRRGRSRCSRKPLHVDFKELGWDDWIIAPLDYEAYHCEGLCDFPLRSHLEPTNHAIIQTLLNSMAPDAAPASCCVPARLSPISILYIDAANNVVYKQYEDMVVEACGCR

GDF6 [2] = target: T2, GDF6 (UniProt Q6KF10); experiment: as above
T2 sequence (looked up): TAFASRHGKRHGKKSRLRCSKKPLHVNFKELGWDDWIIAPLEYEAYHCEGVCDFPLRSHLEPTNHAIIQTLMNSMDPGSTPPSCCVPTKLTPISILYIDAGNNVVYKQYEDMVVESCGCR

GDF7 [3] = target: T1, GDF7; experiment: SPR (Biacore), legend of FIG. 7
GDF6 [4] = target: T2, GDF6; experiment: SPR (Biacore), legend of FIG. 7

Measured: binding

ALK3-Fc homodimeric complex (from UniProt P36894 24-152) (Fc fusion)
binds: all assays above
